{
  "source": "patent US5084142A",
  "about": "“Separation of tertiary butyl alcohol from water by azeotropic or extractive distillation” (priority 1991, dated 1992)",
  "note": "Some compounds share one wording; it may come from a single statement.",
  "data": [
    {"test": "Extractive agents evaluated in vapor-liquid equilibrium still (separating water from t-butanol)", "type": "physicochemical", "settings": "effective extractive distillation agents, in words", "values": [
      {"molecule": "CCCC(=O)CC", "note": "[3-Hexanone]", "overhead product brought out by extractive agent": "bring out the water"},
      {"molecule": "CC(O)c1ccccc1", "note": "(stereo not drawn) [alpha-Methyl benzyl alcohol]", "overhead product brought out by extractive agent": "bring out the water"},
      {"molecule": "CCCCCCO", "note": "[Hexyl alcohol]", "overhead product brought out by extractive agent": "bring out the water"},
      {"molecule": "CCOC(=O)c1ccccc1O", "note": "[Ethyl salicylate]", "overhead product brought out by extractive agent": "bring out the water"},
      {"molecule": "CC(C)CC(O)CC(C)C", "note": "[Diisobutyl carbinol]", "overhead product brought out by extractive agent": "bring out the water"},
      {"molecule": "CC(C)CC(=O)CC(C)C", "note": "[Diisobutyl ketone]", "overhead product brought out by extractive agent": "bring out the water"},
      {"molecule": "2-Hydroxyacetophenone", "overhead product brought out by extractive agent": "bring out the water"},
      {"molecule": "CC(=O)OCCOC(C)=O", "note": "[Ethylene glycol diacetate]", "overhead product brought out by extractive agent": "bring out the water"},
      {"molecule": "CCCCCCC(C)O", "note": "(stereo not shown) [2-Octanol]", "overhead product brought out by extractive agent": "bring out the water"},
      {"molecule": "CCCCCC(=O)OC", "note": "[Methyl caproate]", "overhead product brought out by extractive agent": "bring out the water"},
      {"molecule": "CCCC(=O)OCC", "note": "[Ethyl butyrate]", "overhead product brought out by extractive agent": "bring out the water"},
      {"molecule": "O=C(OCc1ccccc1)c1ccccc1", "note": "[Benzyl benzoate]", "overhead product brought out by extractive agent": "bring out the water"},
      {"molecule": "CCC(O)CO", "note": "(stereo not shown) [1,2-Butanediol]", "overhead product brought out by extractive agent": "bring out the water"},
      {"molecule": "CCCCC(=O)OCC", "note": "[Ethyl n-valerate]", "overhead product brought out by extractive agent": "bring out the water"},
      {"molecule": "OCCOc1ccccc1", "note": "[Ethylene glycol phenyl ether]", "overhead product brought out by extractive agent": "bring out the water"},
      {"molecule": "CCCCC(=O)CC", "note": "[3-Heptanone]", "overhead product brought out by extractive agent": "bring out the water"},
      {"molecule": "CCCCOCCO", "note": "[Ethylene glycol butyl ether]", "overhead product brought out by extractive agent": "bring out the water"},
      {"molecule": "CC(O)CCO", "note": "(stereo not shown) [1,3-Butanediol]", "overhead product brought out by extractive agent": "bring out the t-butyl alcohol"},
      {"molecule": "CC(C)CCCCCCCO", "note": "[Isodecanol]", "overhead product brought out by extractive agent": "bring out the water"},
      {"molecule": "CC(=O)C=C(C)C", "note": "[Mesityl oxide]", "overhead product brought out by extractive agent": "bring out the water"},
      {"molecule": "COC(=O)CCCCC(=O)OC", "note": "[Dimethyl adipate]", "overhead product brought out by extractive agent": "bring out the t-butyl alcohol"},
      {"molecule": "Dipropylene glycol", "overhead product brought out by extractive agent": "bring out the t-butyl alcohol"},
      {"molecule": "OCCOCCOCCO", "note": "[Triethylene glycol]", "overhead product brought out by extractive agent": "bring out the t-butyl alcohol"},
      {"molecule": "CCOCCOCCOCC", "note": "[Diethylene glycol diethyl ether]", "overhead product brought out by extractive agent": "bring out the water"},
      {"molecule": "CC1=CC(=O)CC(C)(C)C1", "note": "[Isophorone]", "overhead product brought out by extractive agent": "bring out the water"},
      {"molecule": "CCCCCC(=O)CC", "note": "[3-Octanone]", "overhead product brought out by extractive agent": "bring out the water"},
      {"molecule": "CC(=O)CCC(C)C", "note": "[Methyl isoamyl ketone]", "overhead product brought out by extractive agent": "bring out the water"},
      {"molecule": "COc1ccccc1", "note": "[Anisole]", "overhead product brought out by extractive agent": "bring out the water"},
      {"molecule": "OCCCCO", "note": "[1,4-Butanediol]", "overhead product brought out by extractive agent": "bring out the t-butyl alcohol"},
      {"molecule": "OCCOCCO", "note": "[Diethylene glycol]", "overhead product brought out by extractive agent": "bring out the t-butyl alcohol"},
      {"molecule": "C[S+](C)[O-]", "note": "[Dimethyl sulfoxide]", "overhead product brought out by extractive agent": "bring out the t-butyl alcohol"},
      {"molecule": "CCCC(=O)OCC(C)C", "note": "[Isobutyl butyrate]", "overhead product brought out by extractive agent": "bring out the water"},
      {"molecule": "CCCCOC(C)=O", "note": "[n-Butyl acetate]", "overhead product brought out by extractive agent": "bring out the water"},
      {"molecule": "OC1CCCCCCCCCCC1", "note": "[Cyclododecanol]", "overhead product brought out by extractive agent": "bring out the water"},
      {"molecule": "COC(=O)c1ccccc1C(=O)OC", "note": "[Dimethyl phthalate]", "overhead product brought out by extractive agent": "bring out the t-butyl alcohol"},
      {"molecule": "CC(CO)CO", "note": "[2-Methyl-1,3-propanediol]", "overhead product brought out by extractive agent": "bring out the t-butyl alcohol"},
      {"molecule": "CN(C)C=O", "note": "[Dimethyl formamide]", "overhead product brought out by extractive agent": "bring out the t-butyl alcohol"}
    ]}
  ]
}
